PubChem BioAssay AID504744, Drosophila RNAi Screening Center – 2011

Aim: 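Identify dsRNAs that increase or decrease phospho-dAkt after insulin treatment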 (primary screen)
System: Drosophila Kc167 cells
Reagent: long dsRNA against Drosophila genes, 250 ng dsRNA per well of a 384-well plate
Duration: 3 days of knock-down, then overnight serum-free starvation before stimulation
Challenge: bovine insulin at 387 nM for 10 minutes after 12 h without serum
Read-out: 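Per-well phospho-dAkt level from an in-cell fluorescent antibody stain, divided by a DNA-dye signal; log2 residuals turned into z-scores that take cell number into account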
Hit rule: 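Hit in the insulin screen when the two-replicate mean z-score is more extreme than plus or minus 2.5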
The deposit covers about 23,000 reagents; below is a random part of those with a known target gene and a result. Of all reagents, 98 (0.43%) got an active call. 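Only hit calls are given; the phospho-dAkt signals, z-scores and hit direction were not deposited.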 The numbers tell different reagents against one gene apart. Names joined by + are all predicted targets of the reagent.

| target | reagent | outcome |
| --- | --- | --- |
| Itgbn (Integrin betanu subunit) | 1 | inactive |
| Dif (Dorsal-related immunity factor) | 1 | inactive |
| Dlc90F (Dynein light chain 90F) | 1 | inactive |
| CG31036 | 1 | inactive |
| CG31036 | 2 | inactive |
| CG5399 | 1 | inactive |
| CG14543 | 1 | inactive |
| CG9988 | 1 | inactive |
| ppk16 (pickpocket 16) | 1 | inactive |
| CG8420 | 1 | inactive |
| CG12862 | 1 | inactive |
| asun (asunder) | 1 | inactive |
| CG30427 | 1 | inactive |
| CG30427 | 2 | inactive |
| CG30427 | 3 | inactive |
| CG5235 | 1 | inactive |
| CG3285 | 1 | inactive |
| shv (shriveled) | 1 | inactive |
| shv (shriveled) | 2 | inactive |
| salm (spalt major) | 1 | inactive |
| Zfrp8 (Zinc finger protein RP-8) | 1 | inactive |
| ato (atonal) | 1 | inactive |
| CG9948 | 1 | inactive |
| CG7017 | 1 | inactive |
| RagA-B (Ras-related GTP binding A/B) | 1 | inactive |
| asRNA:CR42743 + CG34162 | 1 | inactive |
| Nrx-IV (Neurexin IV) | 1 | inactive |
| eIF3i (eukaryotic translation initiation factor 3 subunit i) | 1 | inactive |
| CG7646 | 1 | inactive |
| CG2991 | 1 | inactive |
| Gr98b (Gustatory receptor 98b) | 1 | inactive |
| CanA-14F (Calcineurin A at 14F) | 1 | inactive |
| GCS2beta (Glucosidase 2 beta subunit) | 1 | inactive |
| NtR | 1 | inactive |
| Nepl4 (Neprilysin-like 4) | 1 | inactive |
| CG4887 | 1 | inactive |
| CG4887 | 2 | inactive |
| Egfr (Epidermal growth factor receptor) | 1 | inactive |
| Egfr (Epidermal growth factor receptor) | 2 | inactive |
| CG32655 | 1 | inactive |
| CG13557 | 1 | inactive |
| nompA (no mechanoreceptor potential A) | 1 | inactive |
| EMC3 (ER membrane protein complex subunit 3) | 1 | inactive |
| Cyp4g1 (Cytochrome P450 4g1) | 1 | inactive |
| heph (hephaestus) | 1 | inactive |
| heph (hephaestus) | 2 | inactive |
| heph (hephaestus) | 3 | inactive |
| heph (hephaestus) | 4 | inactive |
| PNKP (Polynucleotide kinase 3'-phosphatase) | 1 | inactive |
| xmas-1 (retired record) | 1 | inactive |
| CG4101 | 1 | inactive |
| CG16711 | 1 | inactive |

Continued (4 carried over from the part before).
| target | reagent | outcome |
| --- | --- | --- |
| PNKP (Polynucleotide kinase 3'-phosphatase) | 1 | inactive |
| xmas-1 (retired record) | 1 | inactive |
| CG4101 | 1 | inactive |
| CG16711 | 1 | inactive |
| CG9168 | 1 | inactive |
| CG30183 | 1 | inactive |
| CG30183 | 2 | inactive |
| CG34278 | 1 | inactive |
| CG34384 | 1 | inactive |
| CG34384 | 2 | inactive |
| CG34384 | 3 | inactive |
| CG34384 | 4 | inactive |
| side-VIII (sidestep VIII) | 1 | inactive |
| side-VIII (sidestep VIII) | 2 | inactive |
| side-VIII (sidestep VIII) | 3 | inactive |
| CG42269 | 1 | inactive |
| CG42269 | 2 | inactive |
| CG31076 | 1 | inactive |
| CG15912 | 1 | inactive |
| Nf-YA (Nuclear factor Y-box A) | 1 | inactive |
| CG16894 | 1 | inactive |
| CG16894 | 2 | inactive |
| ntc (nutcracker) | 1 | inactive |
| Ance-5 | 1 | inactive |
| Acp26Ab (Accessory gland protein 26Ab) | 1 | inactive |
| CG7276 | 1 | inactive |
| Ubc2 (Ubiquitin conjugating enzyme 2) | 1 | inactive |
| Ubc2 (Ubiquitin conjugating enzyme 2) | 2 | inactive |
| lz (lozenge) | 1 | inactive |
| lz (lozenge) | 2 | inactive |
| pygo (pygopus) | 1 | inactive |
| CG15312 | 1 | inactive |
| meep | 1 | inactive |
| CG15399 | 1 | inactive |
| CG15642 | 1 | inactive |
| SoxN (SoxNeuro) | 1 | inactive |
| SoxN (SoxNeuro) | 2 | inactive |
| Cpr60D (Cuticular protein 60D) | 1 | inactive |
| tut (tumorous testis) | 1 | inactive |
| Ir60e (Ionotropic receptor 60e) | 1 | inactive |
| Corp (Companion of reaper) | 1 | inactive |
| CG9636 | 1 | inactive |
| Chrac-16 (Chromatin accessibility complex 16kD protein) | 1 | inactive |
| CG13000 | 1 | inactive |
| Tsp42Eo (Tetraspanin 42Eo) | 1 | inactive |
| Drep4 (DNA fragmentation factor-related protein 4) | 1 | inactive |
| CstF50 (Cleavage stimulation factor 50 kD subunit) | 1 | inactive |
| CG8858 | 1 | inactive |
| Alms1a (Alstrom syndrome 1a) | 1 | inactive |
| lncRNA:CR32658 (long non-coding RNA:CR32658) | 1 | inactive |
| Nplp3 (Neuropeptide-like precursor 3) | 1 | inactive |
| CG15239 | 1 | inactive |
| CG12111 | 1 | inactive |
| Pld3 (Phospholipase D family member 3) | 1 | inactive |
| Fpgs1 (Folylpolyglutamate synthase 1) | 1 | inactive |
| CG9284 (retired record) | 1 | inactive |
| CG9284 (retired record) | 2 | inactive |
| CG2750 | 1 | inactive |
| CG12133 | 1 | inactive |
